Data set [1] in a line: general procedure: Boc solid-phase peptide synthesis; Chloromethylated resin (Bio-Rad Bio-Beads SX-1); p-nitrophenyl esters; dicyclohexyl carbodiimide/N-hydroxybenzotriazole in soluti. Particulars: for isolated yield / crude mass / isolated mass / crude yield: whole synthesis.
A short description of data set [2]: peptide synthesis. Particulars: for cyclisation yield: cyclisation step.

For part of these data: Some peptides are written in HELM: one residue between dots, names in brackets for other building blocks, links after the first $.

In turn, “PEPTIDE1{[Pa].[D-Tyr(Et)].F.V.N.[Abu].P.R.R.[am]}$$$$V2.0” gave a step yield in data set [1] (late stage modification step) of 73.9%.

Take “beta-(S-Benzylmercapto)-beta,beta-cyclopentamethylenepropionyl-Tyr(Bzl)-Phe-Gln-Asn-Cys(Bzl)-Pro-Arg(Tos)-GlyNH2”: the isolated yield in data set [1] (based on initial Gly content on the resin, scale 0.5 mmol) came out at 62.4%. In data set [1] (scale 0.5 mmol), the crude mass is on record as 723 mg and the isolated mass turned out to be 488 mg.

Consider “Aaa-D-Tyr(Et)-Phe-Val-Asn-Abu-Pro-Arg(Tos)-NHCH2 CH2 NH2”, for which, in data set [1], the isolated yield came to 69.7%. This substance also came in with a crude mass in data set [1] (scale about 0.3 mmol) of 290 mg.

Substance “PEPTIDE1{[Aaa].[D-Tyr(Et)].F.V.N.[Abu].P.R.[am]}$$$$V2.0” gave a step yield in data set [1] (late stage modification step) of 36%.

“Aaa-D-Tyr(Et)-Phe-Val-Asn-Abu-Pro-Arg(Tos)NH2”: in data set [1], the crude yield turned out to be 59.3%. This substance had a crude mass in data set [1] (scale about 0.3 mmol) of 220 mg.

Regarding “PEPTIDE1{[Aaa].[D-Tyr(Et)].F.V.N.[Abu].P.R.[Eda]}$$$$V2.0”, the step yield in data set [1] (late stage modification step) stood at 53.5%.

As to “Aaa-D-Tyr(Et)-Phe-Val-Asn-Orn(Tos)-Pro-Arg(Tos)NH2”, in data set [1] (scale 0.3 mmol), the crude mass came out at 248 mg and the crude yield came out at 58.2%.

In the case of “d(CH2)5 [D-Tyr(Et)^2, Val^4, GlyNHMe^9 ]AVP”, the cyclisation yield in data set [2] is on record as 38.7%. Further, the isolated yield in data set [2] (whole synthesis) is 69.3%.

On to d(CH2)5 [Tyr(Me)^2, GlyNHBu-n^9 ]AVP, for which the cyclisation yield in data set [2] came to 48.3%.

In the case of “Pa-D-Tyr(Et)-Phe-Val-Asn-Abu-Pro-Arg(Tos)-Arg-(Tos)NH2”, in data set [1], the crude yield was 55.6%.

“beta-(S-Benzylmercapto)-beta,beta-cyclopentamethylenepropionyl-Tyr(Me)-Phe- Gln-Asn-Cys(Bzl)-Pro-Arg(Tos)-GlyNH2”: the step yield in data set [1] (coupling step) is 77.3%. In data set [1] (based upon initial glycine content of the resin, scale 0.4 mmol), the isolated yield worked out at 50.7%. In addition, in data set [1] (scale 0.4 mmol), the crude mass is 410 mg and the isolated mass worked out at 302 mg.

Take “PEPTIDE1{[Aaa].[D-Tyr(Et)].F.V.N.[Abu].P.R.A.[am]}$$$$V2.0”: the step yield in data set [1] (late stage modification step) came out at 82%.

The values are drawn from US5055448A (Medical College of Ohio, priority 1987, dated 1991).
